Laboratory results: patent US20180280305A1 (Bayer HealthCare LLC, priority 2015, published 2018)

What was measured:
[1] = 317 mg of naproxen sodium
[2] = cited from earlier work

expected plasma level from linear pharmacokinetics [1] [µg/mL]	Structure (SMILES)	dose up to which AUC for single doses is reasonably linear [2]
43	COc1ccc2cc([C@H](C)C(=O)O)ccc2c1 [naproxen sodium]	–
–	COc1ccc2cc(C(C)C(=O)O)ccc2c1 (centres unmarked) [naproxen, 2-(6-methoxynaphthalen-2-yl) propanoic acid]	up to 500 mg
